From the supplement of paper PMC10849652 come the findings set out here.

The chains behind the UniProt entries cited, without tags or fusion partners. Where a name states a change or a piece, a line headed by the entry shows the natural chain unless it says otherwise.
UniProt Q9H0H5: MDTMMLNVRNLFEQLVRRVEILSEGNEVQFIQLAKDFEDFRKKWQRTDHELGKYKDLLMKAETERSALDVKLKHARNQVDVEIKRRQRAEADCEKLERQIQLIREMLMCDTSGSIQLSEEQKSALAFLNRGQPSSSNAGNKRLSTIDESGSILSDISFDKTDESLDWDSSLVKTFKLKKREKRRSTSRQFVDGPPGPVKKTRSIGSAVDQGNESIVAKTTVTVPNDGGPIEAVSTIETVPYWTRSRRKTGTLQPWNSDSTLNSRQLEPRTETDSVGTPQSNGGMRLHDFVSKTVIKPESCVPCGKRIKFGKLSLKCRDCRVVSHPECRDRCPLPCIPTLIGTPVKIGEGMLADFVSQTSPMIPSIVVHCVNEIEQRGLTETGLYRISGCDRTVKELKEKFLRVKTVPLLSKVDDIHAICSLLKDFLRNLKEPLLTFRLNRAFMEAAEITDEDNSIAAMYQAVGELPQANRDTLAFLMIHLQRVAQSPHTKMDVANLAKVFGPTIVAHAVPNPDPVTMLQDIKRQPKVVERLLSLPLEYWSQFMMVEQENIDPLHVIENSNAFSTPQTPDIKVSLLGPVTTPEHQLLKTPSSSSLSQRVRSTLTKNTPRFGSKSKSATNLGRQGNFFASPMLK
UniProt O60671: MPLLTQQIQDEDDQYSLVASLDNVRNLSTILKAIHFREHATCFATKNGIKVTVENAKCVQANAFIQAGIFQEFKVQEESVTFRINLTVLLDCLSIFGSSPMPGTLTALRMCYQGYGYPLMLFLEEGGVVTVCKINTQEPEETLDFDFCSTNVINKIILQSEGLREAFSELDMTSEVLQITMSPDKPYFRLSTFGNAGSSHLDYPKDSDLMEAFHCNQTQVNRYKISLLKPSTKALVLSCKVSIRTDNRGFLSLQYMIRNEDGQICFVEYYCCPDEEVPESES
UniProt Q7Z6M1: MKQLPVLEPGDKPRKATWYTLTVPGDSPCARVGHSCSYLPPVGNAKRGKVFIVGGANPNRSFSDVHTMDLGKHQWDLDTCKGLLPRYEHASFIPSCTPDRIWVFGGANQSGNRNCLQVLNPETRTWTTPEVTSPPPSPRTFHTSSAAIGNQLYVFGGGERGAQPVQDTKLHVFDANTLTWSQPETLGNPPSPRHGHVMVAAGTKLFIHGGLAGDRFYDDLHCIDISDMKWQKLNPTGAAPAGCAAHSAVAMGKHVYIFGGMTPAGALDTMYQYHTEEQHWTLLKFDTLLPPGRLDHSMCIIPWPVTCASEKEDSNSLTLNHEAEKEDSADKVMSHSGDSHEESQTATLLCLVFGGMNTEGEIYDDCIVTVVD
UniProt Q96S59, whole entry, looked up: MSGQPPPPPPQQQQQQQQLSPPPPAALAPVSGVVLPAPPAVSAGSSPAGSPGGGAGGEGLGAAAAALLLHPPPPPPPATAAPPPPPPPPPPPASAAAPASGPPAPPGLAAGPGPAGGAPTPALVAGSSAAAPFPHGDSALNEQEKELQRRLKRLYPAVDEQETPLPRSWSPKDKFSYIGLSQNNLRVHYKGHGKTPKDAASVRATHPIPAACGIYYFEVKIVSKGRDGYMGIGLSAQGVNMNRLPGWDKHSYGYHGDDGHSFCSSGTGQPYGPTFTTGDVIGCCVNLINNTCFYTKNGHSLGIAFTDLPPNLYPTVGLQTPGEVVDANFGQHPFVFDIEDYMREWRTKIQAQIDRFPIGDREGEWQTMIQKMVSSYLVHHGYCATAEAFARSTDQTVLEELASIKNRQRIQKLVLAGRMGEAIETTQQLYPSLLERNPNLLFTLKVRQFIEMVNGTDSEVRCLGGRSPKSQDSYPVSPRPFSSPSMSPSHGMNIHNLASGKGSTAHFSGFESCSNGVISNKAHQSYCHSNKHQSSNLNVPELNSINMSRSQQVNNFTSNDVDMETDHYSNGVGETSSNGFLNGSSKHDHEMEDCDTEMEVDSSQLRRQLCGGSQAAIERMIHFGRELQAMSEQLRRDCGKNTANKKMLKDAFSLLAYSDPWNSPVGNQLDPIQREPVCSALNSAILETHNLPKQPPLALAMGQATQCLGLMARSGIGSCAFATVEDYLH
UniProt Q9UJ41, whole entry, looked up: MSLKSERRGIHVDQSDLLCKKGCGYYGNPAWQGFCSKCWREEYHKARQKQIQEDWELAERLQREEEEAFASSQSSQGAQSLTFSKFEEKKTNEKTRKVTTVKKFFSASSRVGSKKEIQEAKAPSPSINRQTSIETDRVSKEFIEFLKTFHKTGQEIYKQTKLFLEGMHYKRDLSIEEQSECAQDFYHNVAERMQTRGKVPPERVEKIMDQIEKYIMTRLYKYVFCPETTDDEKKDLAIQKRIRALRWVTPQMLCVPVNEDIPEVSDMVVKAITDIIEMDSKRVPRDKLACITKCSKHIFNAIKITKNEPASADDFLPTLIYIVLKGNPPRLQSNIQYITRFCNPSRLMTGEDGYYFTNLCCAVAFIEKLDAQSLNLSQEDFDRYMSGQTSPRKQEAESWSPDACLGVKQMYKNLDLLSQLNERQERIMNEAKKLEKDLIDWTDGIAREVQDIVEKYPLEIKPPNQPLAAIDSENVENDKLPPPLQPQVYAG
UniProt P61020: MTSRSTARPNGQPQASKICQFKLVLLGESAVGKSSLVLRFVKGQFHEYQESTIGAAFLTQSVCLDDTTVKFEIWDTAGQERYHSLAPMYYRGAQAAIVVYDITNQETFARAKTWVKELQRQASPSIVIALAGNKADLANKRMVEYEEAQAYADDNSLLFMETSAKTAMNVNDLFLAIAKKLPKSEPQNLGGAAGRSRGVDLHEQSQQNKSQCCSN
UniProt Q9NRW1: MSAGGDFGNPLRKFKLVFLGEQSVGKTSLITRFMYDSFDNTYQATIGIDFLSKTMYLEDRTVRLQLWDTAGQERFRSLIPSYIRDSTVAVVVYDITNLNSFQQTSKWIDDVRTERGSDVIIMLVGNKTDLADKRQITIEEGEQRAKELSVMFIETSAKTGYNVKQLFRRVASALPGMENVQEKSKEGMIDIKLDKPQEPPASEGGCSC
UniProt Q969Q5: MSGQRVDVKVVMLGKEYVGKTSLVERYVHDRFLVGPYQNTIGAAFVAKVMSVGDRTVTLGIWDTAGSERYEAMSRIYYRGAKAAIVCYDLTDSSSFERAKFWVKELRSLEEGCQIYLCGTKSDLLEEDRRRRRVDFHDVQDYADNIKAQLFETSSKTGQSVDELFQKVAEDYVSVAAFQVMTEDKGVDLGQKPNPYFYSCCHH
UniProt P61026: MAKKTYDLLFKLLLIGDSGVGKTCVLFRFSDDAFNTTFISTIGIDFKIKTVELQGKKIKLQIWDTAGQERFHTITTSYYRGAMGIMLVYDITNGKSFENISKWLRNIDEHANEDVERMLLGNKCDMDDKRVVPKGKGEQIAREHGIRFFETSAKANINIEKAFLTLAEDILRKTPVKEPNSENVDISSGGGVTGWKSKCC
UniProt Q92930: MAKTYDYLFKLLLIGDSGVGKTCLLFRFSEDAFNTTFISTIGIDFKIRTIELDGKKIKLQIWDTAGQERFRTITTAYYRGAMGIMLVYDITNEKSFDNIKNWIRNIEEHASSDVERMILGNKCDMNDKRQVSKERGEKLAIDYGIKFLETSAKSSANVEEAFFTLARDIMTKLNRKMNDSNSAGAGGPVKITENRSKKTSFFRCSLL
UniProt P47736: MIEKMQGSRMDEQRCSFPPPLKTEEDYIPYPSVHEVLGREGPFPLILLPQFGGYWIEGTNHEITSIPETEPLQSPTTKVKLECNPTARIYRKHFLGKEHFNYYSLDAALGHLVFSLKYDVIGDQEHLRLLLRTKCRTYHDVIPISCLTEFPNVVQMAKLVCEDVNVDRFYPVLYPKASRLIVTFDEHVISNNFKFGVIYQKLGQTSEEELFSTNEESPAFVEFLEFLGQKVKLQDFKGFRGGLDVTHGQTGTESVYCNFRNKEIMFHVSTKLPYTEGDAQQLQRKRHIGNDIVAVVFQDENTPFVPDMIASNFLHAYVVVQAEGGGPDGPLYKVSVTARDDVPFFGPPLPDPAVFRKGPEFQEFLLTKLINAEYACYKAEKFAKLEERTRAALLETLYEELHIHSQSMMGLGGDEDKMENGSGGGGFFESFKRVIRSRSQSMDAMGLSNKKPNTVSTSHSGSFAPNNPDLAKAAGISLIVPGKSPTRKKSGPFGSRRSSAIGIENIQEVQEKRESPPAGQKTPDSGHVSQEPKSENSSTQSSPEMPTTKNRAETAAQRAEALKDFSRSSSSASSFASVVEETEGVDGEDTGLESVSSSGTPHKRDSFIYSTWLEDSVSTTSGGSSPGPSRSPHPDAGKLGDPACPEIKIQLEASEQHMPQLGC
UniProt Q06609, whole entry, looked up: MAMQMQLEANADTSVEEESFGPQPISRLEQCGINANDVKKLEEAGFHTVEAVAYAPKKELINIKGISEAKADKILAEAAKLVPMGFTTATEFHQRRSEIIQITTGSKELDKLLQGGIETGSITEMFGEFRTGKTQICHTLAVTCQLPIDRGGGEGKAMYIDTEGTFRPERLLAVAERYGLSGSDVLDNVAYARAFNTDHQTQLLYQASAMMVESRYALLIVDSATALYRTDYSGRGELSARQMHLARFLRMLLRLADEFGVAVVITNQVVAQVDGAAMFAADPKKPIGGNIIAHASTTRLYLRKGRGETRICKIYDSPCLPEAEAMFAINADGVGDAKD
UniProt Q9H0R6: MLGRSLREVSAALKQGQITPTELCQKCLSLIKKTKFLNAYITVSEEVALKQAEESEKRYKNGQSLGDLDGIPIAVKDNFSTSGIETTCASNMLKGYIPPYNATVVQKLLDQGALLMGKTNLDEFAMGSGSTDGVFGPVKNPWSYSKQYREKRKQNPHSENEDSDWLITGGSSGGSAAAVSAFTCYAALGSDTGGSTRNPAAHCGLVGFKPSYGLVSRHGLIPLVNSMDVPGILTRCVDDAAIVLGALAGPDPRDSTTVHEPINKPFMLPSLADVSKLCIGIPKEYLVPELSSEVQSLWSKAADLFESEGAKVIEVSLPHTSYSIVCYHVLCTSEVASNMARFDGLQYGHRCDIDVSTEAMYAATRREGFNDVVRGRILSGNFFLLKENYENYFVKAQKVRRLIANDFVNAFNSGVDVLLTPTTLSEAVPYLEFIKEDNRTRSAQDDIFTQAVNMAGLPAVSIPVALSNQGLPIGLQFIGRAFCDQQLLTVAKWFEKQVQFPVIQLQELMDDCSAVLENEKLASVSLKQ
UniProt P62834: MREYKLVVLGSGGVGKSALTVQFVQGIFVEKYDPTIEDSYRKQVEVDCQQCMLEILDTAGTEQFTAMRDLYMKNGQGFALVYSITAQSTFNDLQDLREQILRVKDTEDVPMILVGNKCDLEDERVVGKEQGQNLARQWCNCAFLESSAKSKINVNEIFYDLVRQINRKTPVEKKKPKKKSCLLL
UniProt P61224: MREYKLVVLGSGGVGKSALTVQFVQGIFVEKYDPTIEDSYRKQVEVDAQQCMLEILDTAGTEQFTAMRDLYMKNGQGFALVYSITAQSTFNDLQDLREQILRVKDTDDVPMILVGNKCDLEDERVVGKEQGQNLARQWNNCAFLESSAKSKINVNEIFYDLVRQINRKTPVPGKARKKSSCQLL
UniProt Q9H2T7: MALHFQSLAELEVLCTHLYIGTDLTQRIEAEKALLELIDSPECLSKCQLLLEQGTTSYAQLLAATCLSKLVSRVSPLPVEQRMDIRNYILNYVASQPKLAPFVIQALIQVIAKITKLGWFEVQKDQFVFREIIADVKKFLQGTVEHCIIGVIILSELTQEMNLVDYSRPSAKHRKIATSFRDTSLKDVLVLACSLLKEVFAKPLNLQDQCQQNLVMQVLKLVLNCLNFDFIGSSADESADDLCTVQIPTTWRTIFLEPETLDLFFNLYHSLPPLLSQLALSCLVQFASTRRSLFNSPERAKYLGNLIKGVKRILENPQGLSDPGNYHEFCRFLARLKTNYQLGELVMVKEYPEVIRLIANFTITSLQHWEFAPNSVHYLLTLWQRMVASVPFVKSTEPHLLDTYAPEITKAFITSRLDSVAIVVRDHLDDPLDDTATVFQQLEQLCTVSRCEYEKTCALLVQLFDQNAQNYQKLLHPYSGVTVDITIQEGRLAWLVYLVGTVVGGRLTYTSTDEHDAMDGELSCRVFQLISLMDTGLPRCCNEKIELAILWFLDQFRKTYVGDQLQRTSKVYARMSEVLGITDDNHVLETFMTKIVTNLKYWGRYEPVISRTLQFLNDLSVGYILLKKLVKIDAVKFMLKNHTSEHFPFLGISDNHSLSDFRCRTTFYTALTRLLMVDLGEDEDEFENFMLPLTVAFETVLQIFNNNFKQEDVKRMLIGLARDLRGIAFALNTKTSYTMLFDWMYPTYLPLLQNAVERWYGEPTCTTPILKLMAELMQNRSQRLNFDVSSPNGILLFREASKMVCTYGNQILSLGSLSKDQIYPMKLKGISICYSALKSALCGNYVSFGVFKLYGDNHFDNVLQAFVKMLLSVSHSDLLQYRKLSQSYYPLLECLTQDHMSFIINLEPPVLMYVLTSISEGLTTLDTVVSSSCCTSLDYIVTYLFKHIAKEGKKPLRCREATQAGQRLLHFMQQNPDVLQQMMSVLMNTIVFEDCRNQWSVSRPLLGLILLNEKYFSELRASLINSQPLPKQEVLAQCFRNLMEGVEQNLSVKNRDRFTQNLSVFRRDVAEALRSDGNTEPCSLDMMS

The list shows a part of the results.

Compound in the assay: CC1=CC=C(C=C1)SC2=C3C=C(SC3=CN=C2)C(=O)N
The experiment in a line: log2 fold change, soluble protein after heating vs DMSO (PISA); higher = thermal stabilisation; K562 lysate, 10 uM; active = over 0.2 and 3.5 SD of the protein, either way, in both replicates (recomputed). The procedure, abridged: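 To prepare the extract, K562 pellets were dounce-homogenised in PBS pH 7.4 with 1 mM MgCl2, giving crude material at 1 mg/mL protein. This was treated with 10 μM compound for 30 min, then heated in aliquots for 3 min over 48°C-58°C before pooling and addition of NP-40 to 0.5% at 4°C. Centrifugation at 21,000xg for 90 min left soluble protein in the supernatant, which TMTpro 16plex LC-MS/MS quantified with equalised channel sums. Results are log-two fold changes in thermal stability compared with solvent controls, from duplicates.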
With RACGAP1 (UniProt Q9H0H5), the log2 fold change was inactive: -0.115. Regarding RAD1 (UniProt O60671), the log2 fold change was inactive: -0.045.

Turning to RAC2 (UniProt P15153), the log2 fold change is inactive: -0.014. As to RABEPK (UniProt Q7Z6M1), the log2 fold change is inactive: 0. RANBP9 (UniProt Q96S59): the log2 fold change was inactive: -0.013. On to RAD51C (UniProt O43502), for which the log2 fold change was inactive: -0.051. Consider RABGEF1 isoform 3 (UniProt Q9UJ41), for which the log2 fold change is inactive: -0.024. With RANBP6 (UniProt O60518), the log2 fold change is inactive: 0.009. Take RABEP1 (UniProt Q15276): the log2 fold change is inactive: -0.023. As to RALGAPA1 isoform 6 (UniProt Q6GYQ0), the log2 fold change is inactive: -0.081.

Take RABAC1 (UniProt Q9UI14): the log2 fold change is inactive: -0.024.

RAB5B (UniProt P61020): the log2 fold change is inactive: 0.016.

RAB6B (UniProt Q9NRW1): the log2 fold change was inactive: 0.031.

Consider RAB5A (UniProt P20339), for which the log2 fold change was inactive: -0.001. Turning to RAB24 (UniProt Q969Q5), the log2 fold change was inactive: 0.036.

Take PYCR3 (UniProt Q53H96): the log2 fold change was inactive: 0.018. Take RAB10 (UniProt P61026): the log2 fold change was inactive: -0.017. As to RAN (UniProt P62826), the log2 fold change is inactive: 0.037.

Turning to RAP2B (UniProt P61225), the log2 fold change is inactive: -0.029.

Regarding RAB8B (UniProt Q92930), the log2 fold change is inactive: -0.06. RAB6A isoform 4 (UniProt P20340): the log2 fold change is inactive: -0.024. In the case of RAB20 (UniProt Q9NX57), the log2 fold change was inactive: 0.055. On to RAP2C (UniProt Q9Y3L5), for which the log2 fold change is inactive: 0.06.

As for RAP1GAP isoform 4 (UniProt P47736), the log2 fold change was inactive: -0.012. RAD51 (UniProt Q06609): the log2 fold change was inactive: 0.014. In the case of RAD23B (UniProt P54727) it was inactive: -0.034; in that of RAP2A (UniProt P10114), inactive: 0.008; in that of RAB11A (UniProt P62491), inactive: 0.012. In the case of QRSL1 (UniProt Q9H0R6) it was inactive: 0.076; in that of RAP1A (UniProt P62834), inactive: 0.002; in that of RAP1B (UniProt P61224), inactive: -0.008. For RAPGEF2, A0A2R8YGD3, the log2 fold change is inactive: 0.023. Turning to RANBP17 (UniProt Q9H2T7), the log2 fold change was inactive: 0.012.
